Measurements published in patent US20220098252A1, “INHIBITOR OF DUX4 AND USES THEREOF” (OSPEDALE SAN RAFFAELE S.R.L., published 2022).
Results are given in words; binding and its absence hold for the method and conditions named. In cells and extracts the contact can be indirect. Some binding calls cover weakened binding; strength is not graded here. For part of these data: Sequences can lack the tags named with a protein.

Tests used:
[1] = molecular target: STREP-HA DUX4 DNA-binding domain (dbd) (human) (UniProt P0CJ85); assay: Strep-Tactin pull-down from nuclear extracts of transfected cells, biotin elution, immunoblot
[2] = molecular target: STREP-HA DUX4 DNA-binding domain (dbd) (human) (UniProt P0CJ85); assay: semi-endogenous Strep-Tactin pull-down, nuclease-treated nuclear extracts, immunoblot
[3] = molecular target: DUX4 (transfected, pLBC2-BS-RFCA-BCVIII vector) (human) (UniProt Q9UBX2); assay: anti-FLAG M2 pull-down from nuclease-treated nuclear extracts of transfected HEK293T cells, immunoblot anti-DUX4 E5-5

B1: endogenous MATRIN-3 (MATR3) (protein, human, UniProt P43243 2-847, looked up)
chain: SKSFQQSSLSRDSQGHGRDLSAAGIGLLAAATQSLSMPASLGRMNQGTARLASLMNLGMSSSLNQQGAHSALSSASTSSHNLQSIFNIGSRGPLPLSSQHRGDADQASNILASFGLSARDLDELSRYPEDKITPENLPQILLQLKRRRTEEGPTLSYGRDGRSATREPPYRVPRDDWEEKRHFRRDSFDDRGPSLNPVLDYDHGSRSQESGYYDRMDYEDDRLRDGERCRDDSFFGETSHNYHKFDSEYERMGRGPGPLQERSLFEKKRGAPPSSNIEDFHGLLPKGYPHLCSICDLPVHSNKEWSQHINGASHSRRCQLLLEIYPEWNPDNDTGHTMGDPFMLQQSTNPAPGILGPPPPSFHLGGPAVGPRGNLGAGNGNLQGPRHMQKGRVETSRVVHIMDFQRGKNLRYQLLQLVEPFGVISNHLILNKINEAFIEMATTEDAQAAVDYYTTTPALVFGKPVRVHLSQKYKRIKKPEGKPDQKFDQKQELGRVIHLSNLPHSGYSDSAVLKLAEPYGKIKNYILMRMKSQAFIEMETREDAMAMVDHCLKKALWFQGRCVKVDLSEKYKKLVLRIPNRGIDLLKKDKSRKRSYSPDGKESPSDKKSKTDGSQKTESSTEGKEQEEKSGEDGEKDTKDDQTEQEPNMLLESEDELLVDEEEAAALLESGSSVGDETDLANLGDVASDGKKEPSDKAVKKDGSASAAAKKKLKKVDKIEELDQENEAALENGIKNEENTEPGAESSENADDPNKDTSENADGQSDENKDDYTIPDEYRIGPYQPNVPVGIDYVIPKTGFYCKLCSLFYTNEEVAKNTHCSSLPHYQKLKKFLNKLAEERRQKKET
binding [1]: binds
binding [2]: binds

B2: FLAG MATR3 full-length (protein, human, UniProt P43243 1-847, looked up, not shown: small tags and cut ends)
chain: MSKSFQQSSLSRDSQGHGRDLSAAGIGLLAAATQSLSMPASLGRMNQGTARLASLMNLGMSSSLNQQGAHSALSSASTSSHNLQSIFNIGSRGPLPLSSQHRGDADQASNILASFGLSARDLDELSRYPEDKITPENLPQILLQLKRRRTEEGPTLSYGRDGRSATREPPYRVPRDDWEEKRHFRRDSFDDRGPSLNPVLDYDHGSRSQESGYYDRMDYEDDRLRDGERCRDDSFFGETSHNYHKFDSEYERMGRGPGPLQERSLFEKKRGAPPSSNIEDFHGLLPKGYPHLCSICDLPVHSNKEWSQHINGASHSRRCQLLLEIYPEWNPDNDTGHTMGDPFMLQQSTNPAPGILGPPPPSFHLGGPAVGPRGNLGAGNGNLQGPRHMQKGRVETSRVVHIMDFQRGKNLRYQLLQLVEPFGVISNHLILNKINEAFIEMATTEDAQAAVDYYTTTPALVFGKPVRVHLSQKYKRIKKPEGKPDQKFDQKQELGRVIHLSNLPHSGYSDSAVLKLAEPYGKIKNYILMRMKSQAFIEMETREDAMAMVDHCLKKALWFQGRCVKVDLSEKYKKLVLRIPNRGIDLLKKDKSRKRSYSPDGKESPSDKKSKTDGSQKTESSTEGKEQEEKSGEDGEKDTKDDQTEQEPNMLLESEDELLVDEEEAAALLESGSSVGDETDLANLGDVASDGKKEPSDKAVKKDGSASAAAKKKLKKVDKIEELDQENEAALENGIKNEENTEPGAESSENADDPNKDTSENADGQSDENKDDYTIPDEYRIGPYQPNVPVGIDYVIPKTGFYCKLCSLFYTNEEVAKNTHCSSLPHYQKLKKFLNKLAEERRQKKET
binding [3]: binds
